This passage reports binding results from paper PMC10764326.

Amino acid sequences for entries named in this document (tags omitted).
UniProt Q3TKT4: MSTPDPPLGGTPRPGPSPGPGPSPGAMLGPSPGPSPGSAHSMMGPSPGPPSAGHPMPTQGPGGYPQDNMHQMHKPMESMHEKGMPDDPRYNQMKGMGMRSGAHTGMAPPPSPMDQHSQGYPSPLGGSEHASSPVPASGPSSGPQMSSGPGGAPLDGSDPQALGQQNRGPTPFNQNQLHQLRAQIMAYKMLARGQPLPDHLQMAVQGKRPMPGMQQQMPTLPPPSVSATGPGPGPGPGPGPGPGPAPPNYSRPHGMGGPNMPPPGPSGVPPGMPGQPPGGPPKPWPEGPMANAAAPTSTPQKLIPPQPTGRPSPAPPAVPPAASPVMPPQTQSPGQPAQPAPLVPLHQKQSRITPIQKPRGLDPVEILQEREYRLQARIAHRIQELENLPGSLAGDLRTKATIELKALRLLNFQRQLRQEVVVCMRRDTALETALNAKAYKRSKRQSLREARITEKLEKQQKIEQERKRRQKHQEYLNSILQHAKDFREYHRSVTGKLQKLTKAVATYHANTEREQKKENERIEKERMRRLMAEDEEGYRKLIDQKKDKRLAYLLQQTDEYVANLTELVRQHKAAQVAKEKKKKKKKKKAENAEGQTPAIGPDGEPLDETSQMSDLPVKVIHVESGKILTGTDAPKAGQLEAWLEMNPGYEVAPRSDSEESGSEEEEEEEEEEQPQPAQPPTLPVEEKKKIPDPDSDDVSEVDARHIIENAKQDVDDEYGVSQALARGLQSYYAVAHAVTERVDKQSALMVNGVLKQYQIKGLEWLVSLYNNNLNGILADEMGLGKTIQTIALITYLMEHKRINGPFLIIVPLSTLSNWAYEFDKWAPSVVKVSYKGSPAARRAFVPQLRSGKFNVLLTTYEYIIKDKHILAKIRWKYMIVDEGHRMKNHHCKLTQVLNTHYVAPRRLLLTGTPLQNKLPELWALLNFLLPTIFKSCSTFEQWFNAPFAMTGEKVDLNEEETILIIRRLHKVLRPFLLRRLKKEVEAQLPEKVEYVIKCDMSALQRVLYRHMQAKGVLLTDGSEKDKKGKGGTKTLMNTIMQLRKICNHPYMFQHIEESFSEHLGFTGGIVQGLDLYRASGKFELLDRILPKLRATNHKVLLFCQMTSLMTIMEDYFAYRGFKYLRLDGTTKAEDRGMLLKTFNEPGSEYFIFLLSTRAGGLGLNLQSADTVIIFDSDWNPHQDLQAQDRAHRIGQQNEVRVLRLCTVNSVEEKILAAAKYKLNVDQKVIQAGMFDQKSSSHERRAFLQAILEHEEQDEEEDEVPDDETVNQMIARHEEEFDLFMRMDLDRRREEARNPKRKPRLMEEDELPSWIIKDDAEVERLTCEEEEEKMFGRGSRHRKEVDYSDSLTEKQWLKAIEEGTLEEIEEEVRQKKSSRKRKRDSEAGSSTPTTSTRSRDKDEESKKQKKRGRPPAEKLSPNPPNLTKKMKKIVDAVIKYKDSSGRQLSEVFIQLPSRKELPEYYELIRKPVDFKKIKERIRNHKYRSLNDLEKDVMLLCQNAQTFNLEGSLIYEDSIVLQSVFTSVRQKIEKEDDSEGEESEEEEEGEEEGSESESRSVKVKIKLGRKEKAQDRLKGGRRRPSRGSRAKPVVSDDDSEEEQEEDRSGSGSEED
UniProt P35710: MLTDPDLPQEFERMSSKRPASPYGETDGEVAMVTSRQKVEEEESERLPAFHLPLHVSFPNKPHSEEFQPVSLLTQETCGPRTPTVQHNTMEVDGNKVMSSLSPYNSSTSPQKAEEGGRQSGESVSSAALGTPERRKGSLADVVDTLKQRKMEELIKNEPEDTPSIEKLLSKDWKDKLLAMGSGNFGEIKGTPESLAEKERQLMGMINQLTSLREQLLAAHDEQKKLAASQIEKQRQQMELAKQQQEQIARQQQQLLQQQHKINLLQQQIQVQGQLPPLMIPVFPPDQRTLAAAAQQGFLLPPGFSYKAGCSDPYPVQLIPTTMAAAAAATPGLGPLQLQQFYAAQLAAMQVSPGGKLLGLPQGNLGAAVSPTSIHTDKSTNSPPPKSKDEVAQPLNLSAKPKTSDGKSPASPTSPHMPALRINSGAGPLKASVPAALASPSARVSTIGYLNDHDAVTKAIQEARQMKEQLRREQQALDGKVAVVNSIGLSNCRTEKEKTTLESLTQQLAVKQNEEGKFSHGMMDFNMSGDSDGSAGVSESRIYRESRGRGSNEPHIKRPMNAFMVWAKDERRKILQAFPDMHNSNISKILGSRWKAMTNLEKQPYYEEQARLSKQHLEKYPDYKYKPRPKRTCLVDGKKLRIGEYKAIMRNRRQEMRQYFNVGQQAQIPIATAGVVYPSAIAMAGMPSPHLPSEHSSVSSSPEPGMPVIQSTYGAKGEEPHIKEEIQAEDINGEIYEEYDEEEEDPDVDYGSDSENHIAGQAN
UniProt P42227: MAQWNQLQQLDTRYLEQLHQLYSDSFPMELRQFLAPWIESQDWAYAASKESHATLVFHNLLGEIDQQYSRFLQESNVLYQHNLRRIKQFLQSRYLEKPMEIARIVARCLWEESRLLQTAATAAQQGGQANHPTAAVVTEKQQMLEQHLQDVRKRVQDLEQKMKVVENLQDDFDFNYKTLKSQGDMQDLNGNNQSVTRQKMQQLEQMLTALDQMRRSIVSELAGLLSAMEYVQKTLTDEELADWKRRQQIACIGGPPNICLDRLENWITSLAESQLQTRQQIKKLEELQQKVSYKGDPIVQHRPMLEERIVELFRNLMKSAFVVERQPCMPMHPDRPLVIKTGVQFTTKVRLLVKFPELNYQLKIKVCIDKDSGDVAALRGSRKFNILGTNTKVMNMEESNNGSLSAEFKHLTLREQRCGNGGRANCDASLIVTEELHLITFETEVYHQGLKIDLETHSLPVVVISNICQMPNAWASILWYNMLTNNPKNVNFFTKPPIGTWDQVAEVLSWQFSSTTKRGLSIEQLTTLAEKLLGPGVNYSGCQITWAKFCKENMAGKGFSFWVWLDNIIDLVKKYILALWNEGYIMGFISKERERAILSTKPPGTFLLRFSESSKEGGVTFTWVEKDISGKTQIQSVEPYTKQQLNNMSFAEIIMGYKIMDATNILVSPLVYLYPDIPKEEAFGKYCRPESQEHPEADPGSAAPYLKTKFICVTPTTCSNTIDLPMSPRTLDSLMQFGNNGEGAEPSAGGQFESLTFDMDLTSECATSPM

These are yes or no findings as the source states them, for the method shown. Binding seen in cells or lysates may run through a third protein. Some entries that bind do so weakly or less than the wild type.

Experiment [1] deals with Myc-tagged BRG1 (brahma-related gene 1; SMARCA4) (UniProt Q3TKT4). In words: co-IP; transfected HeLa cells (Myc-BRG1, Flag-SOX-5, HA-STAT3); IP and IB with the indicated tag antibodies (anti-Myc, anti-HA, anti-Flag).
Experiment [2] concerns the target BRG1 (brahma-related gene 1; SMARCA4) in Th17 cells (mouse (endogenous in Th17 cells)) (UniProt Q3TKT4). Put plainly: co-IP; whole-cell lysates from Th17 cells; IP with anti-BRG1 antibody or control mouse IgG, IB with anti-STAT3 or anti-SOX-5.

Consider “Flag-tagged SOX-5 (SRY-box transcription factor 5) (from UniProt P35710 1-763)”, for which the binding entry in experiment [1] was “binds”. Still for that read-out and setting: with “HA-tagged STAT3 (signal transducer and activator of transcription 3) (from UniProt P42227 1-770)” the entry was “binds”.

Regarding “SOX-5 (SRY-box transcription factor 5) in Th17 cells (from UniProt P35710 1-763)”, the binding result in experiment [2] is recorded as “binds”. Consider “STAT3 (signal transducer and activator of transcription 3) in Th17 cells (from UniProt P42227 1-770)”, for which the binding result in experiment [2] was “binds”.
